The record followed here is publication PMC6202324, “C1GALT1 predicts poor prognosis and is a potential therapeutic target in head and neck cancer” (Oncogene, 2018).

Amino acid sequences for entries named in this document (tags omitted).
UniProt Q9NS00: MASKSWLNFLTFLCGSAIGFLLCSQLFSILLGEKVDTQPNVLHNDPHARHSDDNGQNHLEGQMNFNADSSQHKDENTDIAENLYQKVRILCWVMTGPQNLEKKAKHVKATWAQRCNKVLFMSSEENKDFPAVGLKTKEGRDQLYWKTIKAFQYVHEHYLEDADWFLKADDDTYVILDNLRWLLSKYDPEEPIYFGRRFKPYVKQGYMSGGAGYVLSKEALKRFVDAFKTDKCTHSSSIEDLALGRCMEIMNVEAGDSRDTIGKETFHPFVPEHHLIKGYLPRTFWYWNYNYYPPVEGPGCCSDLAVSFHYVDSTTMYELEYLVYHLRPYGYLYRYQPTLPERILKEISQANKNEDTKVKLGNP

No constants are given. Whether binding was seen depends on the method and setting. Binding seen in cells or lysates may run through a third protein. Some results given as binding are weak or reduced against the parent protein; the word gives no strength.

This assay has as its target EGFR (endogenous, from control HNSCC cells) (human (endogenous in SAS and OEC-M1)) (UniProt P00533). Briefly: co-IP; SAS and OEC-M1 cells transfected with C1GALT1-HA for 48 h; 500 µg lysate protein with 2 µg anti-HA or anti-EGFR antibody, 18 h, 4 °C, protein A/G agarose; blotted with anti-EGFR or anti-HA.

In the case of “C1GALT1-HA (from UniProt Q9NS00 1-363) (enzyme)”, the binding entry is listed as “binds”.
